{"source": "paper PMC10983001", "about": "“Development of Cytotoxic GW7604-Zeise’s Salt Conjugates as Multitarget Compounds with Selectivity for Estrogen Receptor- Positive Tumor Cells” (Journal of Medicinal Chemistry, 2024)", "key": {"MCF-7 cells": {"test_system": "MCF-7 cells", "assay": "Real-time live confocal microscopy, MCF-7", "type": "cell-based, human", "conditions": "MCF-7, 20 μM"}, "SKBr3 cells": {"test_system": "SKBr3 cells", "assay": "Real-time live confocal microscopy, SKBr3", "type": "cell-based, human", "conditions": "SKBr3, 20 μM"}}}
{"smiles": "CCC(=C(c1ccc(O)cc1)c1ccc(C=CC(=O)OCCC[CH]2[CH2][Pt-]2([Cl])([Cl])[Cl])cc1)c1ccccc1.[K+]", "note": "(mixture of isomers) [GW7604-Pent-PtCl3, Potassium trichlorido[η^2-(pent-4-en-1-yl (E)-3-(4-((E/Z)-1-(4-hydroxyphenyl)-2-phenylbut-1-en-1-yl)phenyl)acrylate)]platinate(II)]", "values": [{"measurement": "intracellular fluorescence / vesicles", "setting": "MCF-7 cells", "result": "fluorescent vesicles were detected"}, {"measurement": "diameter of vesicles", "setting": "MCF-7 cells; 48 h", "result": "2.80 ± 0.89", "unit": "μm"}, {"measurement": "intracellular fluorescence / vesicles", "setting": "SKBr3 cells", "result": "only extremely low fluorescence"}]}
